# In PubChem BioAssay AID493014 (National Center for Advancing Translational Sciences (NCATS), 2011):
# The list shows a part of the results. These are further read-outs of the screen, such as a control signal, another cell line or another target. No call is given for them. Most of these compounds were active or inconclusive in the main read-out, so they are no random draw. Potencies come from curve fits of mixed quality, noted in brackets.
# Assay: qHTS Assay to Find Inhibitors of Chronic Active B-Cell Receptor Signaling
# Conditions: ABC-DLBCL IkBa-CBG/CBR reporter, luminescence ratio (green luciferase fused to IkBa over red control in TMD8 lymphoma cells), 4 h
# In short: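 TMD8 ABC-DLBCL cells carrying doxycycline-inducible green luciferase fused to IkappaBalpha plus unfused red luciferase were exposed to compounds (up to 46 uM) for 4 hrs at 37C. Activity came from the overlap-corrected green/red luminescence ratio.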
# [1] = measured here: CBR red luminescence, cell number
# [2] = measured here: IkBa-CBG green luminescence
structure (smiles),measurement,setting,value
N=C1N(/N=C/c2ccccc2)C(=Nc2ccccc2)C(=S)N1c1ccccc1,AC50,[1],"16.4 µM [falling, partial curve]"
COc1ccc(S(=O)(=O)Nc2ccc(Oc3ccsc3C(=O)O)cc2)cc1,AC50,[1],"5.62 µM [rising, full curve, poor fit]"
COc1cc(C(=S)N2CCCCC2)ccc1O,AC50,[1],"29.1 µM [rising, single point]"
O=C(N/N=C\c1ccc(Cl)cc1Cl)c1sccc1-n1cccc1,AC50,[1],"5.01 µM [rising, partial curve, poor fit]"
COc1ccc(-n2cc(-c3ccc(Cl)cc3)[nH]c2=S)cc1,AC50,[1],"22.4 µM [rising, partial curve, poor fit]"
CCN(CC)S(=O)(=O)c1ccc(NC(=O)CSc2ncnc3ccccc23)cc1,AC50,[1],"20.6 µM [falling, single point]"
CCOc1ccccc1NC(=O)NCc1ccccc1F,AC50,[1],"35.5 µM [rising, single point]"
N/C(CN1CCCC1=O)=N\OC(=O)c1ccc(Cl)c(Cl)c1,AC50,[1],"16.4 µM [rising, partial curve, poor fit]"
O=C(CCN1N=C(c2ccccc2)CCC1=O)NC1CCCC1,AC50,[1],"0.112 µM [rising, full curve, poor fit]"
O=C(COc1ccc(F)cc1)OCCN1CCOCC1,AC50,[1],"29.1 µM [falling, single point]"
CCOc1ccc(N=C(C)C2=C(O)c3ccccc3C2=O)cc1,AC50,[1],"2 µM [rising, partial curve, poor fit]"
CCS(=O)(=O)N1Cc2ccccc2CC1C(=O)Nc1ccc(OC)c(OC)c1 (centres undefined),AC50,[1],"35.5 µM [rising, partial curve, poor fit]"
COc1ccccc1N(CC(=O)NCCSCc1ccc(C)cc1)S(=O)(=O)c1ccccc1,AC50,[1],"15.8 µM [falling, partial curve]"
Cc1cc(Br)ccc1NC(=O)CN(C)Cc1cccs1,AC50,[1],"15.8 µM [rising, partial curve]"
Cc1noc(C)c1COc1cccc(C(=O)OC(C)C(=O)Nc2ccc3c(c2)OCO3)c1 (centres undefined),AC50,[2],"29.1 µM [falling, single point]"
CC1CCCC(NC(=O)c2cn(C)c3ccc(S(=O)(=O)N4CCCC4)cc3c2=O)C1C (centres undefined),AC50,[1],"29.1 µM [rising, single point]"
Cc1noc(C)c1C(=O)OC(C)C(=O)NC(C)c1ccc(Cl)cc1Cl (centres undefined),AC50,[1],"0.411 µM [falling, partial curve, poor fit]"
O=C1C=C(Nc2ccccc2O)c2ccccc2C1=O,AC50,[1],"5.01 µM [falling, full curve]"
Cc1cc(C(=O)N/N=C2\CCCC(=O)C2)c(C)o1,AC50,[1],"29.1 µM [falling, single point]"
Cc1ccc(C(=O)CCC(=O)Nc2ncccc2O)cc1,AC50,[1],"23.1 µM [falling, partial curve, poor fit]"
O=C(NNC(=S)Nc1ccc(Br)cc1)c1ccccc1Br,AC50,[1],"15.8 µM [falling, single point]"
COc1cccc(C2=C(C(C)=O)Sc3nncn3N2C(C)=O)c1,AC50,[1],"1.41 µM [falling, partial curve]"
Cc1ccc(-c2c3c(=O)n(C)c(=O)n(C)c3cn2CCCN2CCOCC2)cc1,AC50,[1],"20.6 µM [rising, single point]"
CCOC(=O)C1=C(O)/C(=C\c2cc(C)n(-c3ccc(F)cc3)c2C)N=C1C,AC50,[1],"5.62 µM [falling, full curve, poor fit]"
c1ccc(CCNc2nc(-c3cccnc3)cs2)cc1,AC50,[1],"0.411 µM [rising, partial curve, poor fit]"
Cc1ccc2nc(NC(=O)c3ccc(Br)o3)sc2c1,AC50,[1],"2.82 µM [falling, full curve]"
O=C(N/N=C/c1ccccc1[N+](=O)[O-])c1cccs1,AC50,[1],"35.5 µM [falling, single point]"
C[C@@]12C(=O)OC(=O)[C@]1(C)C1CCC2O1,AC50,[1],"3.26 µM [rising, full curve]"
same,AC50,[2],"3.26 µM [falling, full curve]"
CN1CCN(CC(=O)Nc2cccc(S(=O)(=O)N(C)c3ccccc3)c2)CC1,AC50,[1],"11.6 µM [rising, partial curve, poor fit]"
Cc1ccnc(SCC(=O)c2cccc([N+](=O)[O-])c2)n1,AC50,[1],"0.00517 µM [rising, full curve, poor fit]"
Cc1nc([N+](=O)[O-])c(Br)n1CC(=O)c1ccc2ccccc2c1,AC50,[1],"20.6 µM [falling, single point]"
CCc1ccc(C(=O)NNC(=O)Cn2c(=O)cnc3ccccc32)cc1,AC50,[1],"16.4 µM [rising, partial curve]"
COc1ccc(-c2ccc(C#N)c(SCC(=O)OCc3ccccc3)n2)cc1OC,AC50,[1],"7.08 µM [rising, partial curve, poor fit]"
COc1cccc(NC(=S)Nc2ccc(F)cc2)c1,AC50,[1],"35.5 µM [rising, single point]"
CCOC(=O)N1CCN(CC(=O)N2c3ccccc3Sc3ccccc32)CC1,AC50,[1],"14.1 µM [falling, partial curve, poor fit]"
O=C(CCSc1ccccc1)N1CCN(c2ccccc2)CC1,AC50,[1],"3.16 µM [rising, single point]"
COc1ccc(NC(=O)Nc2ccc(F)c(Cl)c2)cc1,AC50,[1],"35.5 µM [falling, partial curve, poor fit]"
COc1ccc2oc(=O)c(C(=O)N3CCc4ccccc43)cc2c1,AC50,[1],"0.0651 µM [falling, partial curve, poor fit]"
C/C(=N\NC(=S)NC(C)C)c1ccc2c(c1)OCCO2,AC50,[1],"29.1 µM [falling, single point]"
same,AC50,[2],"23.1 µM [falling, single point]"
COc1ccc(CCN2CCC(Nc3nc4ccccc4n3Cc3ccc(F)cc3)CC2)cc1,AC50,[1],"29.1 µM [falling, partial curve, poor fit]"
same,AC50,[2],"18.4 µM [falling, single point]"
Cc1ccc2c(CC(=O)N(C)c3c(N)n(Cc4ccccc4)c(=O)[nH]c3=O)coc2c1,AC50,[1],"23.1 µM [falling, single point]"

# Shown with tabs: part of the list above.
structure (smiles)	measurement	setting	value
COc1ccc(-n2cc(-c3ccc(Cl)cc3)[nH]c2=S)cc1	AC50	[1]	22.4 µM [rising, partial curve, poor fit]
O=C(CCSc1ccccc1)N1CCN(c2ccccc2)CC1	AC50	[1]	3.16 µM [rising, single point]
